“Also recorded” adds a separate entry of the source.
B1: modified MRP4 polypeptide: modified human MRP4 polypeptide lacking the T-K-F motif (terminal 3 amino acids deleted) (protein, listed as Homo sapiens)
chain: MLPVYQEVKPNPLQDANLCSRVFFWWLNPLFKIGHKRRLEEDDMYSVLPEDRSQHLGEELQGFWDKEVLRAENDAQKPSLTRAIIKCYWKSYLVLGIFTLIEESAKVIQPIFLGKIINYFENYDPMDSVALNTAYAYATVLTFCTLILAILHHLYFYHVQCAGMRLRVAMCHMIYRKALRLSNMAMGKTTTGQIVNLLSNDVNKFDQVTVFLHFLWAGPLQAIAVTALLWMEIGISCLAGMAVLIILLPLQSCFGKLFSSLRSKTATFTDARIRTMNEVITGIRIIKMYAWEKSFSNLITNLRKKEISKILRSSCLRGMNLASFFSASKIIVFVTFTTYVLLGSVITASRVFVAVTLYGAVRLTVTLFFPSAIERVSEAIVSIRRIQTFLLLDEISQRNRQLPSDGKKMVHVQDFTAFWDKASETPTLQGLSFTVRPGELLAVVGPVGAGKSSLLSAVLGELAPSHGLVSVHGRIAYVSQQPWVFSGTLRSNILFGKKYEKERYEKVIKACALKKDLQLLEDGDLTVIGDRGTTLSGGQKARVNLARAVYQDADIYLLDDPLSAVDAEVSRHLFELCICQILHEKITILVTHQLQYLKAASQILILKDGKMVQKGTYTEFLKSGIDFGSLLKKDNEESEQPPVPGTPTLRNRTFSESSVWSQQSSRPSLKDGALESQDTENVPVTLSEENRSEGKVGFQAYKNYFRAGAHWIVFIFLILLNTAAQVAYVLQDWWLSYWANKQSMLNVTVNGGGNVTEKLDLNWYLGIYSGLTVATVLFGIARSLLVFYVLVNSSQTLHNKMFESILKAPVLFFDRNPIGRILNRFSKDIGHLDDLLPLTFLDFIQTLLQVVGVVSVAVAVIPWIAIPLVPLGIIFIFLRRYFLETSRDVKRLESTTRSPVFSHLSSSLQGLWTIRAYKAEERCQELFDAHQDLHSEAWFLFLTTSRWFAVRLDAICAMFVIIVAFGSLILAKTLDAGQVGLALSYALTLMGMFQWCVRQSAEVENMMISVERVIEYTDLEKEAPWEYQKRPPPAWPHEGVIIFDNVNFMYSPGGPLVLKHLTALIKSQEKVGIVGRTGAGKSSLISALFRLSEPEGKIWIDKILTTEIGLHDLRKKMSIIPQEPVLFTGTMRKNLDPFNEHTDEELWNALQEVQLKETIEDLPGKMDTELAESGSNFSVGQRQLVCLARAILRKNQILIIDEATANVDPRTDELIQKKIREKFAHCTVLTIAHRLNTIIDSDKIMVLDSGRLKEYDEPYVLLQNKESLFYKMVQQLGKAEAAALTETAKQVYFKRNYPHIGHTDHMVTNTSNGQPSTLTIFE

Tested on: L1210 cells
Assay: Localization of cMOAT polypeptides in L1210 cells (confocal microscopy of GFP fusions, immunofluorescence of untagged protein)
Type: cell-based, mouse
Protocol: The cMOAT-gfp and MRP1-gfp constructs supra (1 μg of DNA per transfection) were separately transfected into MDCK cells and L1210 cells using a UpofectAMINE transfection kit (Life Technologies, Inc.). Transfections of MDCK cells were carried out using Transwell plates (Costar, 24 mm×3 μm polycarbonate membrane) to enable cell polarization. Cells were imaged using a NikonTE300 inverted microscope linked to a Radiance 2000 Laser Scanning System for confocal microscopy and Lasersharp 2000 imaging software (Bio-Rad).
Detection and localization of untagged mutant cMOAT lacking the T-K-F motif (i.e. ΔcMOAT) was achieved by immunofluorescence, using the antibody M2 III6 (Kamiya Pty Ltd). 2×10^5 cells were washed with PBSF (phosphate-buffered saline supplemented with 2.5% fetal bovine serum). The cells were permeabilized using digitonin (5 μg/ml) and incubated at room temperature for 15 min. The cells were then washed three times with PBSF and then incubated with the primary antibody (2 μg) for 1 hr at room temperature before being washed twice with PBSF. The cells were incubated with fluorescein isothiocyanate-conjugated F(ab′)2 (Silenus, Hawthorn, Victoria, Australia) (1:80 dilution) for 30 min at room temperature. Finally, the cells were washed three times and resuspended in PBSF ready for immediate confocal microscopy.
The modified MDR3-gfp construct (1 μg of DNA per transfection) is transfected into MDCK cells and L1210 cells using a LipofectAMINE transfection kit (Life Technologies, Inc.). Transfections of MDCK cells are carried out using Transwell plates (Costar, 24 mm×3 μm polycarbonate membrane) to enable cell polarization. Cells are imaged using a NikonTE300 inverted microscope linked to a Radiance 2000. Laser Scanning System for confocal microscopy and Lasersharp 2000 imaging software (Bio-Rad).
The modified MRP4-gfp construct (1 μl of DNA per transfection) is transfected into MDCK cells and L1210 cells using a LipofectAMINE transfection kit (Life Technologies, Inc.). Transfections of MDCK cells are carried out using Transwell plates (Costar, 24 mm×3 μm polycarbonate membrane) to enable cell polarization. Cells are imaged using a NikonTE300 inverted microscope linked to a Radiance 2000 Laser Scanning System for confocal microscopy and Lasersharp 2000 imaging software (Bio-Rad).

[1] = Examples 5 and 6, tag not stated at the place
[2] = without GFP tag, stably expressing L1210 cells, immunofluorescence with M2 III6 antibody

Molecule	localization in L1210 cells [1]	localization in L1210 cells [2]
modified MDR3 polypeptide: modified human MDR3 polypeptide lacking the T-K-F motif (terminal 4 amino acids deleted)	found in the plasma membrane	
cMOAT: native human canalicular multispecific organic anion transporter (MRP2) [reference compound]		detected intracellularly; also recorded: detected in intracellular vesicles surrounding the nucleus
ΔcMOAT: modified human cMOAT polypeptide wherein the C-terminal T-K-F motif was deleted, without a GFP tag		detected in the cell membrane
B1	found in the plasma membrane	
